# PubChem BioAssay AID1851 (National Center for Advancing Translational Sciences (NCATS), 2009)
# The chains behind the UniProt entries cited, without tags or fusion partners.
# UniProt P11712, whole entry, looked up: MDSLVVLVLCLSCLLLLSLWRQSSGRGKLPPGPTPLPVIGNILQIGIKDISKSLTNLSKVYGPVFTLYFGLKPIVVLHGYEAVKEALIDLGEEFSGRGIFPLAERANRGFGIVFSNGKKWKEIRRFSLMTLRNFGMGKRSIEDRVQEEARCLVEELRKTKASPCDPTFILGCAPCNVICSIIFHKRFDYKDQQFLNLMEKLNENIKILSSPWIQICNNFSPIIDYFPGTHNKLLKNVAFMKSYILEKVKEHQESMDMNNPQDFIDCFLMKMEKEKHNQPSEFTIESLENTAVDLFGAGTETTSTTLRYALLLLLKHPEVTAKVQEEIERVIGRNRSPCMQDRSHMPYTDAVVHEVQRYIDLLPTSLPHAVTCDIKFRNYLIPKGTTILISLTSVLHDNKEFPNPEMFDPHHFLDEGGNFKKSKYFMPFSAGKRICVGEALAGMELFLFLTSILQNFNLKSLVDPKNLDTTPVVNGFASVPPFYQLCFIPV
# Out of some 16,000 compounds screened, about 4,000 (25%) were called active. The shares of active, inactive and inconclusive entries below differ from those in the screen. Calls come from the whole dose curve; as a rule, active = well fitted curve in the direction sought with a large enough effect; inconclusive = small, poorly fitted or top-dose-only effect, or effect the other way; inactive = no such curve, though single readings can be large or run the other way. Where the call is inconclusive, the potency comes from a doubtful curve fit.
# Biological target: Cytochrome P450 2C9 (Homo sapiens) (UniProt P11712)
# Test: Cytochrome panel assay with activity outcomes
# Settings: recombinant CYP, pro-luciferin dealkylation, luminescence, p450-cyp2c9; series mostly up to 11.4 µM; activity, negative = inhibition: at the top concentration
# % is set by controls: 0 for no effect and ±100 for the full control effect.
Structure (SMILES),"activity, negative = inhibition",AC50
O=c1ccc(-c2ccccc2)n[nH]1,inactive: 6.17%,–
Cc1ccccc1S(=O)(=O)c1c(C)cc(-c2ccccc2)[nH]c1=O,–,active: 22.4 µM
C=Cc1c(C)c2cc3[nH]c(cc4nc(cc5nc(cc1[nH]2)C(C)=C5CCC(=O)O)C(CCC(=O)O)=C4C)c(C)c3C=C,–,"inconclusive: 6.31 µM [falling, full curve]"
N.N.N.N.N.N.N.N.N.N.N.N.N.N.O.O.[Ru].[Ru].[Ru],–,"inconclusive: 31.6 µM [falling, partial curve]"
